Results deposited as PubChem BioAssay AID1224830 (NIAID, 2016)
The deposit covers about 18,000 reagents; shown is a random part of them. In the full data, about 2,900 (16%) are marked active. 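Calls are made per well; low scores hint the gene aids the LPS response, high scores that it dampens it.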 Repeated entries: four replicate wells of each siRNA pool. No sequences are given here.

Purpose: 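Host factors that control LPS-induced TNF expression in human macrophages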 (primary screen)
Cell system: human THP-1 monocytic leukaemia cells, TNF dual-luciferase reporter clone, PMA-differentiated to macrophage-like cells
Reagent: siRNA pool against human genes, 50 nM
Time to read-out: LPS for 4 h, given about 3 days after siRNA transfection
Treatment: bacterial LPS (TLR4 ligand), 10 ng/ml
Detection: 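Ratio of firefly to renilla light, scaled to the plate median and expressed as a robust z-score per replicate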
Scale: TNF reporter robust z-score: higher = stronger TNF reporter response to LPS
Hit rule: 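a well is active when its z-score exceeds 2.8 or falls below -1.5; control wells carry no call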

gene knocked down	TNF reporter robust z-score	activity call
LRRTM4 (leucine rich repeat transmembrane neuronal 4)	-0.05	inactive
LRRTM4 (leucine rich repeat transmembrane neuronal 4)	0.21	inactive
LRRTM4 (leucine rich repeat transmembrane neuronal 4)	-1.16	inactive
LRRTM4 (leucine rich repeat transmembrane neuronal 4)	-1.01	inactive
GRK5 (G protein-coupled receptor kinase 5)	0.1	inactive
GRK5 (G protein-coupled receptor kinase 5)	-0.23	inactive
GRK5 (G protein-coupled receptor kinase 5)	1.63	inactive
GRK5 (G protein-coupled receptor kinase 5)	1.14	inactive
ABCB8 (ATP binding cassette subfamily B member 8)	0.36	inactive
ABCB8 (ATP binding cassette subfamily B member 8)	0.68	inactive
ABCB8 (ATP binding cassette subfamily B member 8)	-0.17	inactive
ABCB8 (ATP binding cassette subfamily B member 8)	-0.2	inactive
DAP3 (death associated protein 3)	0.57	inactive
DAP3 (death associated protein 3)	0.23	inactive
DAP3 (death associated protein 3)	0.45	inactive
DAP3 (death associated protein 3)	-0.42	inactive
SERF1A (small EDRK-rich factor 1A)	-0.93	inactive
SERF1A (small EDRK-rich factor 1A)	-0.5	inactive
SERF1A (small EDRK-rich factor 1A)	-0.85	inactive
SERF1A (small EDRK-rich factor 1A)	0.36	inactive
IRF1 (interferon regulatory factor 1)	0.3	inactive
IRF1 (interferon regulatory factor 1)	0.36	inactive
IRF1 (interferon regulatory factor 1)	-0.2	inactive
IRF1 (interferon regulatory factor 1)	0.31	inactive
HINFP (histone H4 transcription factor)	-0.21	inactive
HINFP (histone H4 transcription factor)	0.26	inactive
HINFP (histone H4 transcription factor)	-1.27	inactive
HINFP (histone H4 transcription factor)	-0.63	inactive
FBXW7 (F-box and WD repeat domain containing 7)	-0.67	inactive
FBXW7 (F-box and WD repeat domain containing 7)	-1.69	active
FBXW7 (F-box and WD repeat domain containing 7)	-2.19	active
FBXW7 (F-box and WD repeat domain containing 7)	-2.28	active
WBP4 (WW domain binding protein 4)	0.06	inactive
WBP4 (WW domain binding protein 4)	0.91	inactive
WBP4 (WW domain binding protein 4)	0.52	inactive
WBP4 (WW domain binding protein 4)	0.38	inactive
LRRC37A2 (leucine rich repeat containing 37 member A2)	1.76	inactive
LRRC37A2 (leucine rich repeat containing 37 member A2)	0.83	inactive
LRRC37A2 (leucine rich repeat containing 37 member A2)	-0.13	inactive
LRRC37A2 (leucine rich repeat containing 37 member A2)	-0.35	inactive
ADGRL4 (adhesion G protein-coupled receptor L4)	-0.3	inactive
ADGRL4 (adhesion G protein-coupled receptor L4)	-0.91	inactive
ADGRL4 (adhesion G protein-coupled receptor L4)	-1.65	active
ADGRL4 (adhesion G protein-coupled receptor L4)	-0.92	inactive
SLC7A3	3.59	active
SLC7A3	0.69	inactive
SLC7A3	0.06	inactive
SLC7A3	-0.8	inactive
